{"source": "PubChem BioAssay AID504467", "about": "(National Center for Advancing Translational Sciences (NCATS), 2011)", "note": "The campaign covered roughly 330,000 compounds. About 7,700 (2.3%) were called active. This list was built around the results that the source calls inconclusive (neither active nor inactive); the mix of calls is not that of the screen. Calls follow the shape of the dose curve; as a rule, active = well fitted inhibition curve with a large enough effect; inconclusive = small, poorly fitted or top-dose-only effect, or effect the other way; inactive = flat fitted curve, though single readings scatter. Potencies of inconclusive entries are doubtful fits and often do not repeat. % is scaled to controls: 0 for no effect and ±100 for the full control effect; potency is read from the fitted curve at half-maximal effect.", "data": [{"experiment": "qHTS screen for small molecules that inhibit ELG1-dependent DNA repair in human embryonic kidney (HEK293T) cells expressing luciferase-tagged ELG1; also: nearly all actives have a fitted effect of over 55% in size", "conditions": "HEK293T ELG1-luciferase reporter, luminescence, 16 h, DNA damage induced by 5-fluorouridine; activity change, negative = inhibition: at 46.1 µM (top of the series)", "method_in_brief": "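In this reporter screen, reduction of luminescence relative to DMSO vehicle indicated activity. Compounds and 5-fluorouridine were added together to 2,000 cells per well, incubated for 16 hr at 37 °C, then developed with ONE-Glo.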", "values": [{"smiles": "CCOC(=O)c1cccc(NC(=O)CSc2nnc(C)n2CC2CCCO2)c1", "note": "(stereo unspecified)", "Potency": "inconclusive: 0.92 µM [activator, full curve, poor fit]"}, {"smiles": "CCCC(C(=O)NC1CCCC1)N(C(=O)Cn1nnc(-c2ccc(C)o2)n1)c1ccccc1F", "note": "(stereo unspecified)", "Potency": "inconclusive: 18.3 µM [activator, single point]"}, {"smiles": "COc1cccc(-c2nc(C(N)=O)c3[nH]c(=O)n(-c4ccccc4)c3n2)c1OC", "Potency": "inconclusive: 16.4 µM [inhibitor, partial curve]"}, {"smiles": "CC1(C)Cc2c(C#N)c(NCCN3CCOCC3)nc(-c3ccccc3)c2CO1", "Potency": "active: 8.2 µM"}, {"smiles": "CCOC(=O)C1=C(O)/C(=C/c2cccc(OC)c2O)N=C1C", "activity change, negative = inhibition": "inactive: 5.7%"}, {"smiles": "COc1cc(OC)cc(C(=O)OCC(=O)c2ccc(S(=O)(=O)N3CCCCC3)cc2)c1", "Potency": "inconclusive: 18.3 µM [inhibitor, single point]"}, {"smiles": "COc1ccc(C(=O)CCN2CCN(c3ccccc3F)CC2)cc1", "activity change, negative = inhibition": "inconclusive: 167% [activator]"}, {"smiles": "O=C(CN1C(=O)/C(=C/c2ccccc2F)Sc2ccccc21)NCc1cccnc1", "Potency": "inconclusive: 29.1 µM [inhibitor, single point]"}, {"smiles": "CCCNC(=O)c1ccc(Cn2c(=S)[nH]c3c([nH]c4ccc(OC)cc43)c2=O)cc1", "Potency": "inconclusive: 6.51 µM [inhibitor, single point]"}, {"smiles": "CC(C)(C)[C@H]1COC(=O)[C@H](Cc2ccc(F)cc2)CC/C=C/C[C@@H](CC(=O)N[C@H](CO)Cc2ccccc2)C(=O)N1", "activity change, negative = inhibition": "inactive: 11.8%"}, {"smiles": "CCCC(=O)N/C(N)=N/c1nc2ccccc2o1", "Potency": "inconclusive: 2.59 µM [activator, full curve]"}, {"smiles": "CCOC(=O)c1c(NC(=O)CSc2nnnn2-c2ccccc2OCC)sc2c1CC(C)(C)NC2(C)C", "Potency": "inconclusive: 10.3 µM [inhibitor, single point]"}, {"smiles": "COc1ccc(Cl)cc1Nc1nc(-c2sc(NC(=O)C(C)(C)C)nc2C)cs1", "Potency": "inconclusive: 5.8 µM [inhibitor, partial curve]"}, {"smiles": "CCC(C)(C)n1nnnc1C(c1cccs1)N1CCCCC1", "note": "(stereo unspecified)", "activity change, negative = inhibition": "inactive: -1.38%"}, {"smiles": "Cc1cccc(NC(=O)c2oc3ccc(S(=O)(=O)N4CCOCC4)cc3c2C)c1C", "Potency": "inconclusive: 5.17 µM [inhibitor, single point]"}, {"smiles": "CC(=O)c1ccc(OCc2ccccc2)c(C)c1O", "Potency": "inconclusive: 25.9 µM [activator, partial curve]"}, {"smiles": "O=C(Cn1nnc(-c2ccc(OCc3ccccc3F)cc2)n1)N1CCOCC1", "Potency": "inconclusive: 16.4 µM [activator, partial curve]"}, {"smiles": "O=C(NCCc1cccnc1)c1cc(COc2ccc(F)cc2Cl)on1", "activity change, negative = inhibition": "inactive: -9.13%"}, {"smiles": "Cc1ccc(S(=O)(=O)NCCC(=O)NCC(=O)Nc2c(C)cccc2C)cc1C", "activity change, negative = inhibition": "inactive: 6.1%"}, {"smiles": "COc1ccccc1NC(=O)N[C@@H](Cc1c[nH]c2ccccc12)C(=O)NN", "activity change, negative = inhibition": "inactive: -6.77%"}, {"smiles": "CCCCCCCCn1c(N2CCN(c3cccc(Cl)c3)CC2)nc2c1c(=O)[nH]c(=O)n2C", "Potency": "inconclusive: 4.11 µM [inhibitor, partial curve, poor fit]"}, {"smiles": "CN1CCN(c2cnn(-c3ccccc3)c(=O)c2Br)CC1", "Potency": "inconclusive: 29.1 µM [activator, single point]"}, {"smiles": "C[N+](C)(C)CCCNC(=O)c1ccc(/C=N/O)nc1", "activity change, negative = inhibition": "inactive: 11%"}, {"smiles": "Cc1nc(N2CCN(c3ccccn3)CC2)c2c(C)c(C(=O)Nc3c(F)cc(F)cc3Br)sc2n1", "Potency": "active: 23.1 µM"}, {"smiles": "O=C(COc1ccc(Cl)cc1Br)Nc1ccncc1", "Potency": "inconclusive: 23.1 µM [activator, partial curve]"}, {"smiles": "Cc1cc(-c2csc(NC(=O)c3cc4ccccc4o3)n2)c(C)n1C", "Potency": "inconclusive: 9.2 µM [activator, partial curve]"}, {"smiles": "Cc1occc1C(=O)Nc1c(F)c(F)c(F)c(F)c1F", "Potency": "inconclusive: 16.4 µM [activator, partial curve]"}, {"smiles": "CC(=O)N1c2ccccc2C2(C)C(C1(C)C)C2(Cl)Cl", "note": "(stereo unspecified)", "activity change, negative = inhibition": "inactive: -18%"}, {"smiles": "CCCCCCc1cc2cc(C(N)=O)c(=N)oc2cc1O", "Potency": "inconclusive: 29.1 µM [inhibitor, single point]"}, {"smiles": "CC1=NN(c2ccc(C)cc2)C(=O)/C1=C\\C=C\\c1ccccc1", "Potency": "inconclusive: 20.6 µM [inhibitor, single point]"}, {"smiles": "O=Cc1cc([N+](=O)[O-])ccc1N1CCOCC1", "activity change, negative = inhibition": "inactive: -4.29%"}, {"smiles": "CC(=O)Nc1ccc(/C=N/Nc2ccc(C(=O)c3c(C)cc4ccccn34)cc2[N+](=O)[O-])cc1", "Potency": "inconclusive: 13 µM [activator, partial curve, poor fit]"}, {"smiles": "Cc1ccc(OCCCN2C(=O)C(=O)c3cccc(C)c32)cc1", "activity change, negative = inhibition": "inactive: -0.124%"}, {"smiles": "O=C(NCCC1CCCCN1S(=O)(=O)c1ccccc1)C(=O)NCc1ccccc1", "note": "(stereo unspecified)", "activity change, negative = inhibition": "inactive: -23.8%"}, {"smiles": "O=C(Nc1cc(-c2nc3ccccc3s2)ccc1Cl)c1ccc2c(c1)OCO2", "Potency": "inconclusive: 35.5 µM [activator, single point]"}, {"smiles": "CCCCNS(=O)(=O)c1ccc2nc(SCC(=O)Nc3sccc3C#N)[nH]c2c1", "Potency": "active: 16.4 µM"}, {"smiles": "CCOC(=O)c1cnc(SC2CC(=O)N(c3ccccc3)C2=O)nc1N", "note": "(stereo unspecified)", "activity change, negative = inhibition": "inactive: -1.72%"}, {"smiles": "Cc1nn(CC(=O)NC(=O)NC2CCCC(C)C2C)c(=O)c(C#N)c1C", "note": "(stereo unspecified)", "activity change, negative = inhibition": "inactive: 0.927%"}, {"smiles": "CC(=O)N1CCCc2cc(S(=O)(=O)NC(C(=O)NCc3ccc(C)cc3)C(C)C)ccc21", "note": "(stereo unspecified)", "activity change, negative = inhibition": "inactive: 3.64%"}, {"smiles": "Cc1ccc(OCC(O)CN2CCN(CC(O)COc3ccc(C)cc3Cl)CC2)c(Cl)c1", "note": "(stereo unspecified)", "activity change, negative = inhibition": "inactive: -1.07%"}, {"smiles": "CCN(CC)c1ccc(/C=N/NC(=O)Cc2cccs2)c(O)c1", "activity change, negative = inhibition": "inactive: 19.2%"}, {"smiles": "Cc1csc(SCC(=O)NC(C)c2ccccc2)n1", "note": "(stereo unspecified)", "activity change, negative = inhibition": "inactive: 3.61%"}, {"smiles": "Oc1c(CN2CCN(c3ccccc3)CC2)cc(Br)c2cccnc12", "Potency": "inconclusive: 1.46 µM [inhibitor, full curve]"}, {"smiles": "Cn1cccc1Cc1nnc(SCC(=O)Nc2ccc(F)cc2)n1CCc1ccccc1", "Potency": "inconclusive: 29.1 µM [inhibitor, single point]"}, {"smiles": "COC(=O)c1ccc(NC(=O)CSc2nn3c(=O)c(C)nnc3s2)cc1", "Potency": "inconclusive: 16.4 µM [activator, partial curve, poor fit]"}, {"smiles": "CC1=C(C(=O)Nc2cc(C(=O)N3CCN(c4cccc(C)c4)C(C)C3)ccc2C)SCCO1", "note": "(stereo unspecified)", "Potency": "inconclusive: 13 µM [inhibitor, partial curve]"}, {"smiles": "O=C(COc1ccccc1[N+](=O)[O-])N/N=C/c1cccc(OC(=O)c2ccc3c(c2)OCO3)c1", "Potency": "inconclusive: 4.11 µM [activator, single point]"}, {"smiles": "C=CCN(c1ccccc1)S(=O)(=O)c1cccc(C(=O)NC2CCN(Cc3ccccc3)CC2)c1", "activity change, negative = inhibition": "inactive: -28.6%"}, {"smiles": "CN1CCN(c2ccc(S(=O)(=O)N3CCCCC3)cc2[N+](=O)[O-])CC1", "Potency": "inconclusive: 29.1 µM [inhibitor, single point]"}, {"smiles": "CN1CCN(c2ccc(-c3cccc(NC(=O)COc4ccc(Cl)cc4Cl)c3)nn2)CC1", "Potency": "inconclusive: 3.55 µM [activator, partial curve, poor fit]"}, {"smiles": "CCOC(=O)c1c(SC)[nH]c2c(Cl)cccc2c1=O", "activity change, negative = inhibition": "inactive: -9.56%"}, {"smiles": "CN(CC(=O)NCCc1ccccc1)S(=O)(=O)c1cccc2nsnc12", "activity change, negative = inhibition": "inactive: -17.3%"}, {"smiles": "CCc1ccc(-c2cc(C)no2)cc1S(=O)(=O)NCCc1ccccc1", "Potency": "inconclusive: 29.1 µM [inhibitor, single point]"}, {"smiles": "Cc1ccc(NC(=O)NNC(=O)c2cc3ccccc3cc2O)cc1", "activity change, negative = inhibition": "inactive: 0%"}, {"smiles": "CC1CCCN(CCCNC(=O)CN2C(=O)COc3ccccc32)C1", "note": "(stereo unspecified)", "Potency": "inconclusive: 8.2 µM [activator, partial curve]"}, {"smiles": "COc1ccccc1C(=O)N/C(=C/c1ccc(Br)cc1)C(=O)N1CCCC1", "Potency": "inconclusive: 29.1 µM [inhibitor, single point]"}, {"smiles": "COc1cc(C(=O)NC(=S)Nc2ccc(Cl)c(C(=O)O)c2)cc(OC)c1OC", "activity change, negative = inhibition": "inactive: 5.44%"}, {"smiles": "COc1cc(-c2nc3cnccc3n2C)cc(OC)c1OC", "Potency": "inconclusive: 29.1 µM [activator, single point]"}, {"smiles": "COc1cccc(OCCn2cc(C(=O)c3ccco3)c3ccccc32)c1", "Potency": "inconclusive: 14.6 µM [inhibitor, partial curve]"}, {"smiles": "COc1ccc(-c2cc(=O)c3cc(F)ccc3[nH]2)cc1", "Potency": "inconclusive: 25.9 µM [activator, single point]"}, {"smiles": "O=C(O)c1cccnc1SC1CC(=O)N(Cc2ccccc2)C1=O", "note": "(stereo unspecified)", "activity change, negative = inhibition": "inactive: 4.12%"}, {"smiles": "CCOC(=O)c1c(NC(=S)NC(=O)c2ccco2)sc2c1CCCC2", "Potency": "inconclusive: 23.1 µM [activator, partial curve, poor fit]"}, {"smiles": "Cc1ccnc(NS(=O)(=O)c2cc(C(F)(F)F)ccc2Cl)c1", "activity change, negative = inhibition": "inactive: 2.26%"}, {"smiles": "CN(C1CCCCC1)S(=O)(=O)CCNC(=O)c1ccccc1", "Potency": "inconclusive: 18.3 µM [activator, single point]"}, {"smiles": "COc1ccc(C2=NS(=O)(=O)N(C)C(C(=O)NC3CCCC3)=C2)cc1", "activity change, negative = inhibition": "inactive: 2.35%"}, {"smiles": "Cc1ccc2nc(C)c(C(=O)NN=C3CCCCCC3)n2c1", "Potency": "inconclusive: 8.2 µM [inhibitor, partial curve, poor fit]"}, {"smiles": "CCc1nnc(NC(=O)c2ccc(N3C(=O)CCC3=O)cc2)s1", "Potency": "inconclusive: 20.6 µM [activator, partial curve]"}, {"smiles": "CC(Cc1cccs1)NC(=S)Nc1ccccc1", "note": "(stereo unspecified)", "activity change, negative = inhibition": "inactive: 11.3%"}, {"smiles": "COCCn1c(N)c(N(Cc2ccccc2)C(=O)c2oc3ccccc3c2C)c(=O)[nH]c1=O", "Potency": "inconclusive: 1.83 µM [inhibitor, partial curve, poor fit]"}, {"smiles": "CCCCC1CCC(C(=O)Nc2ccccc2)CC1", "note": "(stereo unspecified)", "Potency": "inconclusive: 29.1 µM [activator, partial curve, poor fit]"}, {"smiles": "COc1cccc(/C=C2\\SC(=O)N(CCC(=O)NCCCn3ccnc3)C2=O)c1", "Potency": "inconclusive: 29.1 µM [activator, single point]"}]}]}
